From the supplement of paper PMC11237882
The list shows a part of the results. Values are worked out from sequencing counts and are noisy.

T1: Homer1 EVH1 domain
T1 chain: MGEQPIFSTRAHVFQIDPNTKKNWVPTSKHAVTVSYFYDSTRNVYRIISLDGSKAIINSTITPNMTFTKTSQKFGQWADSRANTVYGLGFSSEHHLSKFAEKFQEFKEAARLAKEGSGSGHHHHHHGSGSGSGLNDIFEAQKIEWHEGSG

B1: unnamed (peptide)
chain: LPAATILQDRHLLRAGHVGPARALAAWKRSRCSPRG
B2: unnamed (peptide)
chain: SITPIMYPASFWFEVPSSAYVFLIVINLFIGITATV
B3: unnamed (peptide)
chain: SPKAAPRPTGARPARLTRYARLPLGALSLTRRLGPP
B4: unnamed (peptide)
chain: KDVFFFLFFLSVWLVAYGVTTQALLHPHDGRLEWIF
B5: unnamed (peptide)
chain: NFFQNIGSITLFAVFGTAISAFVVGGGIYFLGQADV
B6: unnamed (peptide)
chain: MTNKCLLQIALLLCFSTTALSMSYNLLGFLQRSSNF
B7: unnamed (peptide)
chain: MNGMNHSVVSEFVFMGLTNSREIQLLLFVFSLLFYF
B8: unnamed (peptide)
chain: YLFDNGGTVFFAIFMAIWATVFLEFWKRRRSILTYT
B9: unnamed (peptide)
chain: AAAELGAELLGESIIFITACSCLMLEYWRHQLQQRR
B10: unnamed (peptide)
chain: FTYMLIGEIFELMQFLFVVAFTTFLVSCVDYDILFD
B11: unnamed (peptide)
chain: MESKALLVLTLAVWLQSLTASRGGVAAADQRRDFID
B12: unnamed (peptide)
chain: HPPNERTHLVILGAILLCLGVALTFIFRLRKGRMMD
B13: unnamed (peptide)
chain: YTTNPGYQAYVILISLISFFIPFLVILYSFMGILNT
B14: unnamed (peptide)
chain: SLPYILILSVKLVMQHITGISLGIGLLTTFMYANKS
B15: unnamed (peptide)
chain: LGNTWKQNLTELSGGQRSLVALSLILSMLLFKPAPI
B16: unnamed (peptide)
chain: YQALEQGGMTFGWVCWMILFDSSLYFLCGWYLSNLI
B17: unnamed (peptide)
chain: LGFLGLLLGIAGLRCTNIGGLELSRKAKLAATAGAH
B18: unnamed (peptide)
chain: MKTLPVLVLSLTLLTVFSETSPILTEKQAKQLLRSR
B19: unnamed (peptide)
chain: LRLGALVAPVVSAFSLAFCALPFMGFGKFVQYCPGT
B20: unnamed (peptide)
chain: LWVFMFVCALGTVGLFLPPLFQTHAAFEGPYAAQRD
B21: unnamed (peptide)
chain: YYFGNWAFLGVFLIGLIVSCCKGKKSVIEGVDEDSD
B22: unnamed (peptide)
chain: YRDTFIVTLGNAITSILAGFAIFSVLVYMSQELGVP
B23: unnamed (peptide)
chain: MKEHIIYQKLYGLILMSSFIFLSDTLSLKGKKLDFF
B24: unnamed (peptide)
chain: MAKCDACKRQGKLSESLKWRGEMKHFCNLLCILMFC
B25: unnamed (peptide)
chain: HASLVRPHPSRDQKRGVYFALCLSLMVGSLLETIFI
B26: unnamed (peptide)
chain: GSIMERASGKTENTWLLGFLIALPILIVTTAIVLAR
B27: unnamed (peptide)
chain: QTRHEQLPSPSLLTMWTLKSSLVLLLCLTCSYAFMF
B28: unnamed (peptide)
chain: KTLLLPVVMVITCFIFKKTVRDISYVLATNIYLRKQ
B29: unnamed (peptide)
chain: CGEKMTLCISVLLALTVFLLLISKIVPPTSLDVPLV
B30: unnamed (peptide)
chain: TIKRFVVLISTLGTYNSLLIISWLPVLGFLQLPYLD
B31: unnamed (peptide)
chain: LDTNQHRTHAMRLLDGLEVTAREKRLKVARAILYVA
B32: unnamed (peptide)
chain: LKSLPVLLIIYFVSLLAPWLEFWKSGAHLPGNKENN
B33: unnamed (peptide)
chain: ILQGFSCEWTIQIFLFSLFTTIYALTITGNGAIAFA
B34: unnamed (peptide)
chain: FYLPVVIMTVLYIHISLASRSRVHKHRPEGPKEKKT
B35: unnamed (peptide)
chain: MVAWRSAFLVCLAFSLATLVQRGSGDFDDFNLDDAV
B36: unnamed (peptide)
chain: IAGIAIPAMIIGIPVYVGRKIHNRYEGKDVSKHKRN
B37: unnamed (peptide)
chain: AKWVAIASIIIGLLIIGISCAVHFTRKGAGKSDIRG
B38: unnamed (peptide)
chain: IAGAILLCIIFSLSNIIYFSAALYRIPKPELHKKET
B39: unnamed (peptide)
chain: KVIPLIGEYLLFIMIFVTLSIIVTVFVINVHHRSSS
B40: unnamed (peptide)
chain: AFLVIYLITIMGNLGLIAVIWKDPHLHIPMYLLLGN
B41: unnamed (peptide)
chain: HCLAAFKRLEHKEVLVGLLFLVFPFIPASNLFFRVG
B42: unnamed (peptide)
chain: PGYLTAEVLELAGLWVIVALNVWLILSGSPFIDNSR
B43: unnamed (peptide)
chain: PYISGPLGFFYIYAYVFENIKSVRLEALLLSLLSIV
B44: unnamed (peptide)
chain: TMIFVTLSIMVTVFAINIHHRSSSTHNAMAPLVRKI

Biological target: T1, Homer1 EVH1 domain
Experiment: enrichment score (AUC of log2 frequency ratio across FACS sorting rounds) (log2 AUC); higher = stronger enrichment for Homer1 EVH1 binding

Row | Binder | enrichment score
1 | B1 | -1.23
2 | B2 | 3.05
3 | B3 | 0.109
4 | B4 | -0.132
5 | B5 | 0.895
6 | B6 | 3.11
7 | B7 | -1.83
8 | B8 | 2.27
9 | B9 | 3.51
10 | B10 | 2.5
11 | B11 | 0.181
12 | B12 | 2.21
13 | B13 | 3.36
14 | B14 | 1.31
15 | B15 | 1.48
16 | B16 | -3.34
17 | B17 | -1.25
18 | B18 | 1.77
19 | B19 | 0.0996
20 | B20 | 2.12
21 | B21 | 0.597
22 | B22 | 3.55

Row | Binder | enrichment score
23 | B23 | 1.15
24 | B24 | -1.66
25 | B25 | 1.77
26 | B26 | 3.56
27 | B27 | 2.91
28 | B28 | 0.482
29 | B29 | -0.0182
30 | B30 | 1.46
31 | B31 | 2.42
32 | B32 | 1.66
33 | B33 | -3.36
34 | B34 | 2.4
35 | B35 | 2.57
36 | B36 | 1.14
37 | B37 | 2.45
38 | B38 | 1.62
39 | B39 | -0.356
40 | B40 | 0.811
41 | B41 | -1.41
42 | B42 | 3.12
43 | B43 | -0.45
44 | B44 | 0.65
